In article PMC4374719:
Results are given in words; binding and its absence hold for the method and conditions named. Binding seen in cells or lysates may run through a third protein. Some results given as binding are weak or reduced against the parent protein; the word gives no strength.

Chains of the proteins cited; added tags and fusions are not shown.
UniProt P69332: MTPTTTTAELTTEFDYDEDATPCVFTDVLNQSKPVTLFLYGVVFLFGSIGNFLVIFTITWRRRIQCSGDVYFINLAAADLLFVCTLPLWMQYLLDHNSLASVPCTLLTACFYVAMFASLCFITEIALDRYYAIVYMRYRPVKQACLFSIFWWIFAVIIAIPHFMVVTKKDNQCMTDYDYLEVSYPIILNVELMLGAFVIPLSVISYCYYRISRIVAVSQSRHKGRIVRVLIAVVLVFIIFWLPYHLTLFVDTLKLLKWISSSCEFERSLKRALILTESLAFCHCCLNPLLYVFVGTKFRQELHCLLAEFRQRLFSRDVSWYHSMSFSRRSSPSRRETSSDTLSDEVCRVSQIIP

Target: human cytomegalovirus US28, HA-tagged (human cytomegalovirus (HCMV)) (UniProt P69332)
Assay: co-IP; 293T cells transfected with SERCA2(b) and an HA-tagged viral GPCR; NP40 buffer (50 mM Tris-HCl pH 7.4, 150 mM NaCl, 1% NP-40, 5 mM EDTA); HA-agarose at 4°C for 4 h; immunoblot

Q: “SERCA2b, expressed from a plasmid in 293T cells (from UniProt P16615-1 1-1042) (enzyme)” was tested. Which binding did it give?
A: binds
